Source: PubChem BioAssay AID2685 (National Center for Advancing Translational Sciences (NCATS), 2010)
Some of the results follow. Shown are side measurements of this screen, not its main read-out; they come without a call. Compounds called inactive in the main read-out are mostly missing here. Potencies come from curve fits of mixed quality, noted in brackets.

Assay: qHTS Assay for Lipid Storage Modulators in Drosophila S3 Cells;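 for cell number change: cells counted by Cell Tracker Red CMTPX staining in the red channel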
Conditions: BODIPY lipid droplet fluorescence, 18-24 h; for cell number change: measured here: cell count max response, cells fed with added oleic acid
Procedure, shortened: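 Drosophila S3 cells got compounds at several concentrations plus oleic acid (400 uM solution). Laser-scanning cytometry with 488 nm excitation read lipid droplets at 500-530 nm and cells at 575-640 nm. Percent activity was relative to 20 uM Triacsin C.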

[1] = measured here: lipid fluorescence (Fed channel) AC50, cells fed with added oleic acid
[2] = measured here: cell number channel AC50, cells fed with added oleic acid

Compound	cell number change [%]	AC50 [1]	AC50 [2]
CC(=O)N(C)Cc1ccc(C(=O)CSc2nnc(C3CC3)n2C2CC2)cc1	18.9	0.00461 µM [rising, full curve, poor fit]	
COc1ccc(C2C(C#N)=C(/N=C/N3CCN(C)CC3)OC3=C2C(=O)CC(C)(C)C3)cc1 (stereo not given)	10.6	16.4 µM [falling, partial curve]	
Cc1ccc(C(=O)NCCCc2ccccc2)c(C)c1	-3.5		
CC1Cc2ccccc2N1S(=O)(=O)c1cccc(C(=O)Nc2cccnc2)c1 (stereo not given)	-28.1	9.2 µM [falling, partial curve]	
CCN1C(=O)N[C@@H](c2ccc(Br)cc2)C(C(=O)OC)=C1C	-6.89		
COc1cc(-c2cc(C(=O)Nc3nc4ccccc4s3)c3ccccc3n2)cc(OC)c1OC	20.5	16.4 µM [rising, partial curve, poor fit]	
CCCCOC(=O)Nc1ccc(S(=O)(=O)Nc2nccs2)cc1	17.4		
O=C(OC1CCOC1=O)c1ccc(-c2nc3ccccc3s2)s1 (stereo not given)	-38.4	23.1 µM [falling, single point]	29.1 µM [falling, single point]
Nc1nc(C(=O)N2CCOCC2)nn1S(=O)(=O)c1ccc(Cl)cc1	-22.7	16.4 µM [falling, single point]	
Cc1onc(-c2ccccc2)c1C(=O)NC1CC1	16		
COc1ccc(-c2cc(C(=O)NCCCN3CCOCC3)on2)cc1OC		29.1 µM [rising, single point]	1.84 µM [falling, single point]
CCc1ccc(C(=O)COC(=O)c2cccs2)cc1	2.4	6.51 µM [falling, single point]	
COc1ccccc1C(=O)NC(=O)COC(=O)CN1C(=O)NC(C)(C)C1=O	21.3		
CCC(=O)NC1(C(F)(F)F)C(=O)NC(C)=C1C#N (stereo not given)	-42	29.1 µM [falling, single point]	29.1 µM [falling, single point]
Cc1ccc2cccc(NC(=S)NC(=O)c3ccnn3C)c2n1	-54.5	14.6 µM [falling, partial curve]	14.6 µM [falling, single point]
COc1ccc(-n2c(C)cc(C(=O)CN3C(=O)NC4(CCCc5sccc54)C3=O)c2C)cc1 (stereo not given)	10	0.82 µM [rising, partial curve, poor fit]	
CN(Cc1ccccc1)c1nc2c(c(=O)[nH]c(=O)n2C)n1CCSc1nc2ccccc2[nH]1	-9.85	1.16 µM [rising, full curve]	
Cc1cc(OCC(=O)OCC(=O)N2CCc3ccccc3C2)ccc1Cl	-22.1	0.291 µM [falling, full curve]	
CCN(CC)CCCn1c(C)cc2c(c1=O)C(c1cc(OC)c(OC)cc1OC)C(C#N)=C(N)O2 (stereo not given)	0.689		

Compound	cell number change [%]	AC50 [1]	AC50 [2]
C=CCn1c(SCC(=O)c2ccc(CNC(C)=O)o2)nc2ccccc2c1=O	19.6	2.06 µM [rising, partial curve]	0.731 µM [rising, partial curve, poor fit]
CCOc1ccc2nc(SCC(=O)Nc3cccc(S(=O)(=O)NC4=NCCCCC4)c3)[nH]c2c1	9.56	0.651 µM [rising, partial curve, poor fit]	
COCCNC(=O)c1cccc(OC2CCN(Cc3ccc(C(=O)OC)cc3)CC2)c1	-6.04	29.1 µM [rising, single point]	
CCCN(C(=O)c1cc(Cl)nc2ccccc12)C1CCS(=O)(=O)C1 (stereo not given)	-2.81		
CCCN(CC(=O)Nc1ccccc1C)C(=O)c1ccc(N2CCCC2)c([N+](=O)[O-])c1	-3.06	2.06 µM [falling, partial curve]	2.06 µM [falling, partial curve]
CSc1ccc(/C=C(/NC(=O)c2ccco2)C(=O)N2CCCCCC2)cc1	-18.3		
CCCCOc1c(Br)cc(/C=C2\N=C(C)OC2=O)cc1OCC	12.9		
CCCCN(C(=O)c1cccc(S(=O)(=O)N2CCCC2)c1)c1c(N)n(CCC)c(=O)[nH]c1=O	26.3	0.13 µM [rising, full curve]	
NS(=O)(=O)c1ccc(NC(=S)NNC(=O)c2ccc(Br)o2)cc1	12.4		
c1ccc(CCNc2nc3ccccc3s2)cc1	-46.9	29.1 µM [falling, single point]	18.4 µM [falling, single point]
Cc1ccc2c(c1)c(/C=C/c1cc[n+](C)cc1)c(C)n2C	-90.1	0.731 µM [falling, full curve]	3.66 µM [falling, full curve]
Cc1ccccc1-n1nc(C)c2c(C(=O)NN)cc(-c3ccncc3)nc21	40.1	1.84 µM [rising, full curve, poor fit]	6.51 µM [rising, partial curve, poor fit]
CCOc1ccccc1OCCCC(=O)Nc1cccc(S(=O)(=O)N2CCOCC2)c1	-17	0.461 µM [falling, partial curve, poor fit]	
CCN[C@H]1C[C@H](C)S(=O)(=O)c2sc(S(N)(=O)=O)cc21	-34.6	6.51 µM [falling, full curve]	0.164 µM [falling, full curve]
CCOC(=O)C1CCCN(C(=O)c2cc3c(=O)n4ccccc4nc3s2)C1 (stereo not given)	-23.2	2.59 µM [falling, full curve]	
Cc1ccc(C(=O)N(CC(=O)NC2CCCC2)c2ccc3c(c2)OCCO3)s1	24.7	0.13 µM [rising, partial curve, poor fit]	0.092 µM [rising, full curve, poor fit]
Cc1ccc(CCN2CC(C(=O)NCCC(C)C)CC2=O)cc1 (stereo not given)	-27.2	32.6 µM [falling, single point]	
Cc1ccc(S(=O)(=O)N2CCCCC2)cc1NS(=O)(=O)c1cccc(C(=O)O)c1	30.4	1.3 µM [falling, partial curve]	16.4 µM [rising, single point]

Rewritten with bars between the fields: part of the list above
Compound | cell number change [%] | AC50 [1] | AC50 [2]
Cc1ccc2cccc(NC(=S)NC(=O)c3ccnn3C)c2n1 | -54.5 | 14.6 µM [falling, partial curve] | 14.6 µM [falling, single point]
COc1ccc(-n2c(C)cc(C(=O)CN3C(=O)NC4(CCCc5sccc54)C3=O)c2C)cc1 (stereo not given) | 10 | 0.82 µM [rising, partial curve, poor fit] | 
